Results reported in PMC7506551.
No constants are given. Whether binding was seen depends on the method and setting. In cells and extracts the contact can be indirect. Some results given as binding are weak or reduced against the parent protein; the word gives no strength.

By UniProt entry, the sequences of proteins in these tests, tags left out. Where a name states a change or a piece, a line headed by the entry shows the natural chain unless it says otherwise. Chains listed by the source or under a name are the forms on record and can include a tag or linker.
UniProt Q12824: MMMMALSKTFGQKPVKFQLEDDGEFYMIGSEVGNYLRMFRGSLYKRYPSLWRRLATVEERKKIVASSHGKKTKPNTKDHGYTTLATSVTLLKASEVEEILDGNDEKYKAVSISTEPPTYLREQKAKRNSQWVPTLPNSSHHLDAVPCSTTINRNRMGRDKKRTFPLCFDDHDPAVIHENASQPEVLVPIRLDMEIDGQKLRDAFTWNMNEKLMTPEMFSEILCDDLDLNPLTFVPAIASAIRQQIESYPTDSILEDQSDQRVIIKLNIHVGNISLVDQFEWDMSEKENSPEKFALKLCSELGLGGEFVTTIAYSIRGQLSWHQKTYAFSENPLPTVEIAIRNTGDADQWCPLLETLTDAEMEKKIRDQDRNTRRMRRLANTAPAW
SMARCB1 with the in-frame deletion 185-193Δ (Q12824, form named): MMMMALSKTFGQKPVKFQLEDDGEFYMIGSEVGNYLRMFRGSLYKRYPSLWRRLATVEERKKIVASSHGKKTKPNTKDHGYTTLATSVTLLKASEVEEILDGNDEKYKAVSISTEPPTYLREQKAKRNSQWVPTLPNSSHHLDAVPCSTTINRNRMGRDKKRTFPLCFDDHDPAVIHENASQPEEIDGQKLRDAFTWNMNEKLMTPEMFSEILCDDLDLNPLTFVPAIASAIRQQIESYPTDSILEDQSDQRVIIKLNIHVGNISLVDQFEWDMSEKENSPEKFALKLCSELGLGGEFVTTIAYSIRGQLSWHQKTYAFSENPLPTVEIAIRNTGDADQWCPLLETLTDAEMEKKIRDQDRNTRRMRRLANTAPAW
UniProt P51532: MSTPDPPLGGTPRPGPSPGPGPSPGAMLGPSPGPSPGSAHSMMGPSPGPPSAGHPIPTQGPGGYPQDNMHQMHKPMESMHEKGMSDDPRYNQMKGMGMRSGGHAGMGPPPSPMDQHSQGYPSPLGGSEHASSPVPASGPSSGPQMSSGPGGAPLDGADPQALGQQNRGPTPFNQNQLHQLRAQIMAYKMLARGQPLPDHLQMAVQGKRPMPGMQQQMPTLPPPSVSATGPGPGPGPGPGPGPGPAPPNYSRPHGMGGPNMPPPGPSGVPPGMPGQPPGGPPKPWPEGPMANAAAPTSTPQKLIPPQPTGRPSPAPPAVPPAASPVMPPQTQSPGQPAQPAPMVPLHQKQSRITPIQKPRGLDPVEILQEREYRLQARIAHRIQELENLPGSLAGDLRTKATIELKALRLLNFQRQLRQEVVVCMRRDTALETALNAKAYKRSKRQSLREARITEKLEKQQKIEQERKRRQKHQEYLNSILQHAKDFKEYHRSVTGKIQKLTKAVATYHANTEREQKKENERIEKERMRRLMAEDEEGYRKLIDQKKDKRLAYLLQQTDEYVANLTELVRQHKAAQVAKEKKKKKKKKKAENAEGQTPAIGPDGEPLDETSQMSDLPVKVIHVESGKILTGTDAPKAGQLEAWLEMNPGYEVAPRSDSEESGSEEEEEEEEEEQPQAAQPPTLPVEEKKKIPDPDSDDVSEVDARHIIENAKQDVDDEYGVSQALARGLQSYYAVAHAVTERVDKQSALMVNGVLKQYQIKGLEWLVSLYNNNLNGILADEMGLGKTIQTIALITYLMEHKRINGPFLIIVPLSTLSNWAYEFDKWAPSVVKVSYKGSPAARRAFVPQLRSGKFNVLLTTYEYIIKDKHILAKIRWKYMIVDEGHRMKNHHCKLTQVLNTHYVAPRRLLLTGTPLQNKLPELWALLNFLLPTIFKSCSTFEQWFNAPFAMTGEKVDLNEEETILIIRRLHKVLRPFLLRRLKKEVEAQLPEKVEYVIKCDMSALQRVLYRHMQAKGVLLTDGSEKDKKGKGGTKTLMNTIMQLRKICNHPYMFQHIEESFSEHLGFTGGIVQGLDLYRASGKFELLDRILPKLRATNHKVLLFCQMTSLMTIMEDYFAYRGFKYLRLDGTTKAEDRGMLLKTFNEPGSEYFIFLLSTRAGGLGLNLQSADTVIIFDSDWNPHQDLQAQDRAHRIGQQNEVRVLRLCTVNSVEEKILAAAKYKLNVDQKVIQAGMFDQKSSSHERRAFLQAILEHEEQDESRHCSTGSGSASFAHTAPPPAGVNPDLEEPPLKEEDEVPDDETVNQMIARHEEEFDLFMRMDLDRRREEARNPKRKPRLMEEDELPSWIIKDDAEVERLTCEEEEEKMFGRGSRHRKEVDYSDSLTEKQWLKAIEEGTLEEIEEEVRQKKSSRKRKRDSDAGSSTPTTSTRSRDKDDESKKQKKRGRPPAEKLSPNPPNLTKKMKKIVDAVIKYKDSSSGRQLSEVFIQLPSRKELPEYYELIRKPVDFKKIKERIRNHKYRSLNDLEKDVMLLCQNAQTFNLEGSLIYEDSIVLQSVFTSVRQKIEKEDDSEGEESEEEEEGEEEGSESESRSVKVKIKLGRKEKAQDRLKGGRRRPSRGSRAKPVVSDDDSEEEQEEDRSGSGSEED
UniProt Q92922: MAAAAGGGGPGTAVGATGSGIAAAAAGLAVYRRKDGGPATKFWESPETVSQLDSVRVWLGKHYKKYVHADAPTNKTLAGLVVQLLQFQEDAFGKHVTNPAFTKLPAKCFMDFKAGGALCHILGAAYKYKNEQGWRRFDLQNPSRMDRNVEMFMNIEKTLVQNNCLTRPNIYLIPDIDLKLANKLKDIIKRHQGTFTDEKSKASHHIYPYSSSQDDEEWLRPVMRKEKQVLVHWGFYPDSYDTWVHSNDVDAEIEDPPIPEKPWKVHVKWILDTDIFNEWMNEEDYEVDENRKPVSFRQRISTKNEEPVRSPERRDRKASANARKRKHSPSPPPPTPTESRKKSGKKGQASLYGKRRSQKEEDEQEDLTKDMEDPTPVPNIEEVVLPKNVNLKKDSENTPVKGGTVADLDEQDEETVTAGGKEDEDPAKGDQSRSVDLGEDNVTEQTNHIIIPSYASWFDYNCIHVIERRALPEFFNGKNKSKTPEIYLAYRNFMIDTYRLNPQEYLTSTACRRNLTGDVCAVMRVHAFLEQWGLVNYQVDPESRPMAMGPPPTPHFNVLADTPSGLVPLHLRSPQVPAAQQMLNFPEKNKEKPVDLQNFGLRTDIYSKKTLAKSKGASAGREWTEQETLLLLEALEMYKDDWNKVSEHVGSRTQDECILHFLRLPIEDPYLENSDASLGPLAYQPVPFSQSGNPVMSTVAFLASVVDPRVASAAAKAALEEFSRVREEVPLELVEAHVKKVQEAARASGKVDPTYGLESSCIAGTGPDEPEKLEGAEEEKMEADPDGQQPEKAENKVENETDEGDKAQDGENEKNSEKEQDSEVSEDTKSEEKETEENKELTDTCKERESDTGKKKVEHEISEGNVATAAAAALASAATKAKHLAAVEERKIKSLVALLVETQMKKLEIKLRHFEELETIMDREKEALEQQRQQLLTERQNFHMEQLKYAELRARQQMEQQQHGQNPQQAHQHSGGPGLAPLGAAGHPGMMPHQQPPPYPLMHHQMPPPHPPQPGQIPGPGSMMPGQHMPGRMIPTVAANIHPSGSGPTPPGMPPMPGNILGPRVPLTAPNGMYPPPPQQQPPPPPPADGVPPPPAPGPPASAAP

What was measured:
GFP-SMARCB1 (human) [1] = target: GFP-SMARCB1 (human) (UniProt Q12824); test: co-IP; GFP-SMARCB1 (wild type or mutant) with one Myc-tagged partner, no other subunit added
[2] = target: GFP-SMARCB1(R341L) (human) (UniProt Q12824); test: co-IP; GFP-SMARCB1 (wild type or mutant) with Myc-SMARCA4 and added SMARCC2 and/or SMARCC1 (Fig. 1e, Supplementary Fig. S8a-b); 3% of the Myc fusion proteins shown as input; also with SMARCC2(R487C) and/or SMARCC1(R512Q) in place of the wild types
[3] = target: GFP-SMARCB1(D202A, E210A) (human) (UniProt Q12824); test: as above
[4] = target: SMARCB1 with the in-frame deletion 185-193Δ (human) (UniProt Q12824); test: as above
GFP-SMARCB1 (human) [5] = target: GFP-SMARCB1 (human) (UniProt Q12824); test: as above
[6] = target: GFP-SMARCB1(D202A, E210A, R341L) (human) (UniProt Q12824); test: as above

Row | Substance | binding (GFP-SMARCB1 (human) [1]) | binding [2] | binding [3] | binding [4] | binding (GFP-SMARCB1 (human) [5]) | binding [6]
1 | Myc-SMARCA4 (from UniProt P51532 1-1647) | binds weakly | binds | binds | binds | binds | binds
2 | Myc-SMARCC1 (from UniProt Q92922 1-1105) |  | binds | binds | binds | binds | binds
3 | SMARCC1 R499C (from UniProt Q92922 1-1105) | binds |  |  |  |  | 
4 | SMARCC1 R499H (from UniProt Q92922 1-1105) | binds |  |  |  |  | 
